Assay results from the supplement of paper PMC10849652.
The list shows a part of the results.

By UniProt entry, the sequences of proteins in these tests, tags left out. Where a name states a change or a piece, a line headed by the entry shows the natural chain unless it says otherwise.
UniProt Q9NZ53: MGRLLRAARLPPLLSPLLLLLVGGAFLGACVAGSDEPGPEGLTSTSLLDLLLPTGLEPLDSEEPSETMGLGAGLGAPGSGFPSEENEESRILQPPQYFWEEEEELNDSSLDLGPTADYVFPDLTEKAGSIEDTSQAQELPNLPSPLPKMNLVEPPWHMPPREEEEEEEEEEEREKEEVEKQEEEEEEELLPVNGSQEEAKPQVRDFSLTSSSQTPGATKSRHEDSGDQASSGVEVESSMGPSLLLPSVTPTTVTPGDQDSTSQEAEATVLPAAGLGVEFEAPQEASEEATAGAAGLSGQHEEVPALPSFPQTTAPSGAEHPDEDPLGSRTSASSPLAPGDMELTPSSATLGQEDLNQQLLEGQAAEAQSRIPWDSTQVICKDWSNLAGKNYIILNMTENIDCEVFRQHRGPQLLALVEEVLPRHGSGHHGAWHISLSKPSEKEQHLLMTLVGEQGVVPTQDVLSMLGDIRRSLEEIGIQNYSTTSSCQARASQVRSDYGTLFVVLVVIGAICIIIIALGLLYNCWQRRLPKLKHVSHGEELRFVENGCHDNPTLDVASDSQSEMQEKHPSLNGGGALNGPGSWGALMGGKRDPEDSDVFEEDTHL
UniProt Q15126: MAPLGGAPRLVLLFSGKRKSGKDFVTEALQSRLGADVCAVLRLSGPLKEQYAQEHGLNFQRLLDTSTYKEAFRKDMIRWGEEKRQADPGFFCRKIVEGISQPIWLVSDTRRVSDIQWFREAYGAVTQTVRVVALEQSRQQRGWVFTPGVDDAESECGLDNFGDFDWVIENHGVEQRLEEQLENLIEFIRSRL
UniProt P09884: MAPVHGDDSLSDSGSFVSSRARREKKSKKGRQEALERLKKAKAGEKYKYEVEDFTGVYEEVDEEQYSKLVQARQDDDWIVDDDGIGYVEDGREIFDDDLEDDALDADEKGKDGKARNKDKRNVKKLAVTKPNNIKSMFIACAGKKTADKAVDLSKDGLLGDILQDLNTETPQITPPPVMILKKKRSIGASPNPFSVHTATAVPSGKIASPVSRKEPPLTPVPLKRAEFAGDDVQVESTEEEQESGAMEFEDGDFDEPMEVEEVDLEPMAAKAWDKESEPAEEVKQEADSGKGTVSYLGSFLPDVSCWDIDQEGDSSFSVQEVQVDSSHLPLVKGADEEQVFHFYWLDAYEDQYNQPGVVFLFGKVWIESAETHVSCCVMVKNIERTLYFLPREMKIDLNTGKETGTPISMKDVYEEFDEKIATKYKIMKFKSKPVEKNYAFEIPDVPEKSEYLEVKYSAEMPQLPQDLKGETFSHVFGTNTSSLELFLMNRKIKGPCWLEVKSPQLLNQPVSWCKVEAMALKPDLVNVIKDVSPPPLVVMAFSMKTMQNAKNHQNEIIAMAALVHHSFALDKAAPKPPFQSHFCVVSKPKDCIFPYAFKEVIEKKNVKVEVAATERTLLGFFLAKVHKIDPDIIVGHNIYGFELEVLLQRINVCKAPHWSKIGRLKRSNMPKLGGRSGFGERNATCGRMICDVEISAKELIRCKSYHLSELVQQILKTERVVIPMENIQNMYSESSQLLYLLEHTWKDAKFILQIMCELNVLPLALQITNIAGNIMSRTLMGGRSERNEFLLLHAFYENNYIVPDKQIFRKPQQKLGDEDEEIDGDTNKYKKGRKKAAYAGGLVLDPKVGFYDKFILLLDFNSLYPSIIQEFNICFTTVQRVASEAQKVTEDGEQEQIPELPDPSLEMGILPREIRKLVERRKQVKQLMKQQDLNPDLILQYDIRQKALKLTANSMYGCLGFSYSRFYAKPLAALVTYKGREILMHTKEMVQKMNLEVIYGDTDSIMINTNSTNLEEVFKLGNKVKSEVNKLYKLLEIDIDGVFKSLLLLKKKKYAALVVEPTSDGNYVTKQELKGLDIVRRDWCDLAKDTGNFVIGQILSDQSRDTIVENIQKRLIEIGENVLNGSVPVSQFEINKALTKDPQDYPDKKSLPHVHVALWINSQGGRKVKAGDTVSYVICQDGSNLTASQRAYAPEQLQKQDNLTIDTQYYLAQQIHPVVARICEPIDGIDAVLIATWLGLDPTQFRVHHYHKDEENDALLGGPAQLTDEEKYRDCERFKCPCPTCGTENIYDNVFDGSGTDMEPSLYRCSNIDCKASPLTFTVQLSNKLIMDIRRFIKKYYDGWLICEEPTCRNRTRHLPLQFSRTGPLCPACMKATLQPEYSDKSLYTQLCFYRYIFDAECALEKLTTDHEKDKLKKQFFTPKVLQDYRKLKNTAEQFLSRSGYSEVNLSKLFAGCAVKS
UniProt Q9NUX5: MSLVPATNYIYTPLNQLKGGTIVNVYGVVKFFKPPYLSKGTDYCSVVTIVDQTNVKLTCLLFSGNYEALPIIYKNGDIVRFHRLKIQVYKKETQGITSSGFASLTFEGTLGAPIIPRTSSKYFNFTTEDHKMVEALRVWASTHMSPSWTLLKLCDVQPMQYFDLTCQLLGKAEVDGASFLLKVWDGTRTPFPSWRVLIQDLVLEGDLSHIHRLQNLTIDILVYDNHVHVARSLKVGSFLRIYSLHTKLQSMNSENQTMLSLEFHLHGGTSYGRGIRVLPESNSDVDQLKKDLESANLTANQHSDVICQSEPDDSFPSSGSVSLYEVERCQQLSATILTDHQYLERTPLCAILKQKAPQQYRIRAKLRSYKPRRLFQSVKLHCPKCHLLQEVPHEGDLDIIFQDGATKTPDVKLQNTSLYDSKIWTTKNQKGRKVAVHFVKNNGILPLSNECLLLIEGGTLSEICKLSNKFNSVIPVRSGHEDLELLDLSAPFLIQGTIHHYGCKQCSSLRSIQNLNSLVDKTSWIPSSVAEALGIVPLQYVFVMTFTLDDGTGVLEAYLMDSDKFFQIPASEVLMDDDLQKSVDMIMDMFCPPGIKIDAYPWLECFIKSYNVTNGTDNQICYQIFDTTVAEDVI
UniProt Q9UHN1: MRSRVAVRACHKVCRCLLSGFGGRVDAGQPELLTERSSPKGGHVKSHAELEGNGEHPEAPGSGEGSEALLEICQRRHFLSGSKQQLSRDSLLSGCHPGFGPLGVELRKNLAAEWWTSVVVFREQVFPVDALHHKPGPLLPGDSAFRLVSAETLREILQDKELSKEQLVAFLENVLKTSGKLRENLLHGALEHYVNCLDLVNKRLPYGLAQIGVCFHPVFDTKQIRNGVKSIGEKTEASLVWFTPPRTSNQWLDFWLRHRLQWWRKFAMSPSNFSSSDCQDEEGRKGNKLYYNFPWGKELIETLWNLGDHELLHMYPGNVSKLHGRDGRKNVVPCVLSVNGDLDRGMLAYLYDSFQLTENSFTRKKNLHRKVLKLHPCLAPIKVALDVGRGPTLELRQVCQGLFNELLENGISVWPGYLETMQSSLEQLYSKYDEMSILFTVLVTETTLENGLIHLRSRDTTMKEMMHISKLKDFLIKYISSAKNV
UniProt Q15181: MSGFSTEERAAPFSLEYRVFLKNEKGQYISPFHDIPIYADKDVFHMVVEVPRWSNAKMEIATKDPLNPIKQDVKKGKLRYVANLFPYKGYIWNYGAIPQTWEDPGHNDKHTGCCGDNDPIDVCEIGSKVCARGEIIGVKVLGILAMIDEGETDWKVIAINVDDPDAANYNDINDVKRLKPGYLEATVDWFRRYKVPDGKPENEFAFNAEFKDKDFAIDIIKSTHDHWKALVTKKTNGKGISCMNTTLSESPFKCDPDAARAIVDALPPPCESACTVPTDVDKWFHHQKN
UniProt Q969H6: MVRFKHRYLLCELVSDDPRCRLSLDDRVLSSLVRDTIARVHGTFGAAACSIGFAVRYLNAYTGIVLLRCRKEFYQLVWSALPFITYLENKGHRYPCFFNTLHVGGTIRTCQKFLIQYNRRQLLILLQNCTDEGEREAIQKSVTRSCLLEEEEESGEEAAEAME
UniProt Q9P215: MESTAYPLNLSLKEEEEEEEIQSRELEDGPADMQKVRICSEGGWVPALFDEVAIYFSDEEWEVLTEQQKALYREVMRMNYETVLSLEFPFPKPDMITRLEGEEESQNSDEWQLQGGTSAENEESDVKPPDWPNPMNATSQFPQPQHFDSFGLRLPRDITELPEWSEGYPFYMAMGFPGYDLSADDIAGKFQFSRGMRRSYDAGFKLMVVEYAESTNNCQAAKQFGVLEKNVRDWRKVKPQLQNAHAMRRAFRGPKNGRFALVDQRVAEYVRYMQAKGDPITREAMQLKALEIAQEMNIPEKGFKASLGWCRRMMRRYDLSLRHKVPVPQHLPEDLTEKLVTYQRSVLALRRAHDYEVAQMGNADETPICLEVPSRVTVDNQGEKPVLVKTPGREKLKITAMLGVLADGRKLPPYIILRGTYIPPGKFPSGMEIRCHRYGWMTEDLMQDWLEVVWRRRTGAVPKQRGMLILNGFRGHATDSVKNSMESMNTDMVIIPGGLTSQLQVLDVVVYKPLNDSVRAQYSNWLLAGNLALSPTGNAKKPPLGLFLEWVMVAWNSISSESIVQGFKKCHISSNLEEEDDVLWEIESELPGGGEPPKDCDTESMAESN
UniProt Q9H2U2: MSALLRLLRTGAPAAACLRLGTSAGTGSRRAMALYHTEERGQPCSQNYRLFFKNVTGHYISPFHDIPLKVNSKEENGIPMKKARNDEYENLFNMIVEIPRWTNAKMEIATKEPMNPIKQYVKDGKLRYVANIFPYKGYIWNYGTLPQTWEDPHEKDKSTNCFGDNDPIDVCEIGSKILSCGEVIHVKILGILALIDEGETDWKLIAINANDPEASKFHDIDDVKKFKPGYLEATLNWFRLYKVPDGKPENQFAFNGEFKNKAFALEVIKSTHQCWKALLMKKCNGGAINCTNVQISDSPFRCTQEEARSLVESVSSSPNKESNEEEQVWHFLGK
UniProt O75334: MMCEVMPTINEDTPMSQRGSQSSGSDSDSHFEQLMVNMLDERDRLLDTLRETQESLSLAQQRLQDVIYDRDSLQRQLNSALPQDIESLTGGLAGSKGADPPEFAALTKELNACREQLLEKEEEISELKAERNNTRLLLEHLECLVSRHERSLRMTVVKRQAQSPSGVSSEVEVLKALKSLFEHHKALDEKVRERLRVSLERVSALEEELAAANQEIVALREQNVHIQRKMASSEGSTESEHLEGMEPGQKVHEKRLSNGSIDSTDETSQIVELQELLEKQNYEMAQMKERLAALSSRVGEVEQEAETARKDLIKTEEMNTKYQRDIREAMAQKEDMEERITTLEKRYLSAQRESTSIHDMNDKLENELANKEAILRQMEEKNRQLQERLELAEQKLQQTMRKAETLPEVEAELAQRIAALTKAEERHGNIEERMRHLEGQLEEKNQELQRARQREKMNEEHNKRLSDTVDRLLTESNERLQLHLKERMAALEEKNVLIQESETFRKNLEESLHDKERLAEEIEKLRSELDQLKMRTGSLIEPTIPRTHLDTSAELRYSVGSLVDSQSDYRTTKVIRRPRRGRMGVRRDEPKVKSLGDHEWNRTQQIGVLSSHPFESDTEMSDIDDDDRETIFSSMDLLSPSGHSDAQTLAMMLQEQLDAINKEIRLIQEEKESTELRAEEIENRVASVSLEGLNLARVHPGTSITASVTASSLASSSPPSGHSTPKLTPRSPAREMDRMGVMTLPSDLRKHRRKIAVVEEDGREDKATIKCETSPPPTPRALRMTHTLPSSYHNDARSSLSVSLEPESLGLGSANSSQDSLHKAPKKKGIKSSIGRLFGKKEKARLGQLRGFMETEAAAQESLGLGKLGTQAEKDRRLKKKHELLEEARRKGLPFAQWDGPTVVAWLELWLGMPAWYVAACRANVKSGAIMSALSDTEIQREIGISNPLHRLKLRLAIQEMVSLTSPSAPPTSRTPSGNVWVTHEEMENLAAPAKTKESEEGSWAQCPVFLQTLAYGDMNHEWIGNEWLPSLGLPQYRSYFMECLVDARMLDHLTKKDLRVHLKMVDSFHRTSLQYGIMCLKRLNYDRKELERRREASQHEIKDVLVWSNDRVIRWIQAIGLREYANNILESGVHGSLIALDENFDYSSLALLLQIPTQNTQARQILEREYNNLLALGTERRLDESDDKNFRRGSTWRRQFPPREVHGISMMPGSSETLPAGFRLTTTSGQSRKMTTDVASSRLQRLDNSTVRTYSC

Legend:
Test in all cases: log2 fold change, soluble protein after heating vs DMSO (PISA); higher = thermal stabilisation; K562 lysate, 10 uM; active = over 0.2 and 3.5 SD of the protein, either way, in both replicates (recomputed)
[1] = compound: Cc1cn(-c2cc(NC(=O)c3ccc(C)c(Nc4nccc(-c5cccnc5)n4)c3)cc(C(F)(F)F)c2)cn1 [nilotinib]
Summary of the method: (§1)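 Following dounce homogenisation of K562 pellets in PBS pH 7.4 with 1 mM MgCl2, crude extract at 1 mg/mL protein was incubated for 30 min with 10 μM compound. Aliquots were then heated for 3 min over 48°C-58°C and pooled, NP-40 was added to 0.5% at 4°C, and soluble protein was recovered as the supernatant at 21,000xg for 90 min. Channel-sum-equalised TMTpro 16plex LC-MS/MS quantified this protein. Each value, from duplicates, is a log-two fold change in thermal stability relative to solvent controls.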

[2] = compound: Cc1nc(Nc2n[nH]c3c2CN(C(=O)N[C@H](CN(C)C)c2ccccc2)C3(C)C)c2sccc2n1
Summary of the method: as §1

[3] = compound: Cc1nc(Nc2ncc(C(=O)Nc3c(C)cccc3Cl)s2)cc(N2CCN(CCO)CC2)n1 [dasatinib]
Summary of the method: as §1

[4] = compound: Cc1ncc(-c2ccnc(Nc3ccc(S(C)(=O)=O)cc3)n2)n1C(C)C
Summary of the method: as §1

[5] = compound: Cn1cc(-c2ccc3c(c2)CCN3C(=O)Cc2cccc(C(F)(F)F)c2)c2c(N)ncnc21
Summary of the method: as §1

[6] = compound: Cn1cc(CNCC2CCN(c3ncc(C(=O)NO)cn3)CC2)c2ccccc21 [quisinostat]
Summary of the method: as §1

[7] = compound: Cn1cncc1[C@@](N)(c1ccc(Cl)cc1)c1ccc2c(c1)c(-c1cccc(Cl)c1)cc(=O)n2C [tipifarnib]
Summary of the method: as §1

[8] = compound: NC(=O)Nc1cc(-c2cccc(F)c2)sc1C(=O)N[C@H]1CCCNC1
Summary of the method: as §1

[9] = compound: NC(=O)c1cnc(N[C@@H]2CCCC[C@@H]2N)nc1Nc1cccc(-n2nccn2)c1
Summary of the method: as §1

[10] = compound: NC1(c2ccc(-c3nc4ccn5c(=O)[nH]nc5c4cc3-c3ccccc3)cc2)CCC1
Summary of the method: as §1

[11] = compound: NCC(=O)Nc1ccc(-n2nc(C(F)(F)F)cc2-c2ccc3c(ccc4ccccc43)c2)cc1
Summary of the method: as §1

[12] = compound: O=C(CCCCCCC(=O)Nc1ccccc1)NO [vorinostat]
Summary of the method: as §1

[13] = compound: O=C(O)c1ccc2c(c1)nc(Nc1cccc(Cl)c1)c1ccncc12 [silmitasertib]
Summary of the method: as §1

[14] = compound: O=C1NC(=O)C(c2cnc3ccccn23)=C1c1cn2c3c(cc(F)cc13)CN(C(=O)N1CCCCC1)CC2
Summary of the method: as §1

[15] = compound: c1cn2cc(-c3ccc4cn[nH]c4c3)nc(Nc3ccc(N4CCOCC4)cc3)c2n1 [entospletinib]
Summary of the method: as §1

Measured: log2 fold change

POLD3 (UniProt Q15054)
active: [12] -0.335
inactive: [1] 0.03 | [2] -0.014 | [3] -0.002 | [4] 0.029 | [5] 0.007 | [6] -0.049 | [7] 0.002 | [8] 0.013 | [9] 0.018 | [10] -0.027 | [11] 0.045 | [13] -0.02 | [14] -0.03 | [15] 0.011

PODXL2 (UniProt Q9NZ53)
inactive: [1] 0.043 | [2] 0.023 | [3] 0.296 | [4] 0.024 | [5] -0.044 | [6] -0.059 | [7] -0.055 | [8] 0.007 | [9] -0.148 | [10] 0.002 | [11] 0.045 | [12] 0.085 | [13] -0.132 | [14] 0.023 | [15] -0.162

PLSCR1 (UniProt O15162)
inactive: [1] -0.015 | [2] -0.024 | [3] 0.02 | [4] -0.006 | [5] 0.069 | [6] -0.03 | [7] 0.008 | [8] -0.1 | [9] -0.025 | [10] -0.043 | [11] 0.01 | [12] 0.096 | [13] -0.062 | [14] -0.03 | [15] 0.024

PNKP (UniProt Q96T60)
inactive: [1] -0.004 | [2] 0.008 | [3] -0.01 | [4] -0.058 | [5] 0.078 | [6] 0.016 | [7] -0.027 | [8] 0.007 | [9] 0.005 | [10] -0.56 | [11] 0.062 | [12] 0.08 | [13] -0.277 | [14] -0.042 | [15] -0.011

PMVK (UniProt Q15126)
inactive: [1] -0.082 | [2] 0.002 | [3] 0.021 | [4] 0.028 | [5] 0.023 | [6] 0.018 | [7] 0.029 | [8] 0.009 | [9] 0.088 | [10] 0.022 | [11] 0.021 | [12] -0.221 | [13] 0.076 | [14] -0.072 | [15] 0.004

POLA1 (UniProt P09884)
active: [12] -0.293
inactive: [1] -0.022 | [2] -0.01 | [3] 0.011 | [4] 0.017 | [5] 0.009 | [6] -0.028 | [7] -0.001 | [8] 0.029 | [9] 0.001 | [10] 0.008 | [11] 0.009 | [13] -0.019 | [14] 0.006 | [15] -0.016

POT1 (UniProt Q9NUX5)
inactive: [1] -0.011 | [2] -0.017 | [3] -0.008 | [4] 0.044 | [5] 0.045 | [6] -0.021 | [7] 0.035 | [8] 0.065 | [9] -0.023 | [10] 0.012 | [11] 0.098 | [12] -0.008 | [13] 0.081 | [14] -0.021 | [15] -0.059

Two neighbouring entries from above, quoted:
PODXL2 (UniProt Q9NZ53)
inactive: [1] 0.043 | [2] 0.023 | [3] 0.296 | [4] 0.024 | [5] -0.044 | [6] -0.059 | [7] -0.055 | [8] 0.007 | [9] -0.148 | [10] 0.002 | [11] 0.045 | [12] 0.085 | [13] -0.132 | [14] 0.023 | [15] -0.162

PLSCR1 (UniProt O15162)
inactive: [1] -0.015 | [2] -0.024 | [3] 0.02 | [4] -0.006 | [5] 0.069 | [6] -0.03 | [7] 0.008 | [8] -0.1 | [9] -0.025 | [10] -0.043 | [11] 0.01 | [12] 0.096 | [13] -0.062 | [14] -0.03 | [15] 0.024

Continued.

POLG2 (UniProt Q9UHN1)
inactive: [1] 0.056 | [2] 0.031 | [3] 0.043 | [4] 0.041 | [5] -0.001 | [6] -0.055 | [7] -0.005 | [8] 0.013 | [9] -0.005 | [10] 0.026 | [11] 0.02 | [12] 0.027 | [13] -0.049 | [14] -0.01 | [15] 0.01

PPA1 (UniProt Q15181)
inactive: [1] 0.008 | [2] -0.021 | [3] -0.019 | [4] 0.006 | [5] -0.001 | [6] 0.003 | [7] 0.03 | [8] 0.017 | [9] 0.001 | [10] 0.008 | [11] 0.012 | [12] 0.086 | [13] 0 | [14] 0.018 | [15] 0.038

POP5 (UniProt Q969H6)
inactive: [1] 0.047 | [2] 0.062 | [3] 0.025 | [4] -0.026 | [5] -0.031 | [6] -0.043 | [7] 0.019 | [8] 0.042 | [9] 0.013 | [10] 0.089 | [11] -0.034 | [12] -0.059 | [13] 0.05 | [14] 0.048 | [15] 0.072

PML (UniProt P29590)
inactive: [1] 0.014 | [2] 0.009 | [3] -0.014 | [4] -0.009 | [5] 0 | [6] 0.032 | [7] -0.007 | [8] -0.038 | [9] 0.026 | [10] 0.003 | [11] -0.006 | [12] -0.107 | [13] 0.017 | [14] -0.047 | [15] 0.014

POGK (UniProt Q9P215)
inactive: [1] -0.04 | [2] 0.005 | [3] -0.068 | [4] -0.001 | [5] -0.023 | [6] -0.086 | [7] 0.007 | [8] 0.108 | [9] 0.008 | [10] -0.006 | [11] 0.018 | [12] -0.173 | [13] 0.002 | [14] -0.083 | [15] 0.3

POLB (UniProt P06746)
active: [12] -0.302
inactive: [1] 0.035 | [2] -0.013 | [3] 0 | [4] -0.026 | [5] 0.008 | [6] -0.028 | [7] 0.002 | [8] 0.022 | [9] 0.012 | [10] -0.053 | [11] 0.027 | [13] -0.106 | [14] -0.023 | [15] 0.022

PNPO (UniProt Q9NVS9)
inactive: [1] 0.01 | [2] -0.048 | [3] -0.001 | [4] 0.021 | [5] 0.006 | [6] 0.047 | [7] 0.001 | [8] 0.01 | [9] -0.002 | [10] -0.018 | [11] -0.224 | [12] -0.093 | [13] -0.002 | [14] -0.034 | [15] 0.022

PPA2 (UniProt Q9H2U2)
inactive: [1] 0.017 | [2] -0.033 | [3] 0.012 | [4] -0.107 | [5] -0.018 | [6] 0.003 | [7] -0.027 | [8] 0.003 | [9] -0.011 | [10] -0.004 | [11] 0.004 | [12] -0.03 | [13] -0.013 | [14] 0.019 | [15] 0.014

POLR2H (UniProt P52434)
inactive: [1] -0.018 | [2] -0.012 | [3] 0.026 | [4] 0.013 | [5] -0.044 | [6] -0.015 | [7] 0.019 | [8] 0.026 | [9] 0.02 | [10] -0.011 | [11] 0.032 | [12] 0.086 | [13] -0.004 | [14] 0.018 | [15] -0.002

POC5 (UniProt Q8NA72)
active: [12] -0.36
inactive: [1] 0.01 | [2] 0.058 | [3] -0.159 | [4] 0.09 | [5] -0.081 | [6] 0.007 | [7] 0.005 | [8] -0.005 | [9] -0.128 | [10] 0.034 | [11] -0.128 | [13] -0.021 | [14] 0.02 | [15] -0.184

PPFIA2 (UniProt O75334)
inactive: [1] -0.046 | [2] 0.027 | [3] -0.064 | [4] -0.022 | [5] 0.01 | [6] -0.238 | [7] -0.029 | [8] 0.017 | [9] 0.024 | [10] -0.089 | [11] 0.05 | [12] -0.053 | [13] -0.074 | [14] 0.069 | [15] -0.036

PLG (UniProt P00747)
inactive: [1] 0.079 | [2] -0.35 | [3] 0.074 | [4] 0.022 | [5] -0.191 | [6] -0.033 | [7] -0.087 | [8] -0.025 | [9] -0.023 | [10] 0.044 | [11] 0.119 | [12] -0.092 | [13] -0.117 | [14] 0 | [15] -0.067
